PubChem BioAssay AID1224828 | NIAID | 2016

Assay: 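Knock-downs that increase or decrease LPS-induced p65 nuclear translocation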 (primary screen)
Cell system: mouse RAW264.7 G9 macrophage reporter cells (GFP-p65, Tnf promoter-mCherry)
Knock-down reagent: siRNA pool against mouse genes, 100 nM
Timing: 2 days siRNA transfection, then 40 min LPS before fixation
Challenge: LPS (Salmonella minnesota R595) at 10 ng/ml
Detection: 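Imaged p65 nuclear translocation ratio, normalised to the plate median, converted to robust z-scores and averaged across two replicates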
Direction: p65 translocation robust z-score: higher = more nuclear NF-kappaB p65 after LPS than the plate median; nuclear/cytoplasmic p65 ratio: higher = more nuclear NF-kappaB p65
Active means: 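Active if robust z is above 3.3 (negative regulators) or below -1.56, the Tlr4 control median (positive regulators); activity score 50 or more; control wells not called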
Meaning of the calls: active = hit (p65 shift raised or lowered); inactive = no clear change
The whole screen tested about 17,000 reagents; below is a part drawn at random. 762 of all reagents (4.5%) were called active. 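Active calls include both raised and lowered p65 entry, mostly lowered; wells with fewer than 50 cells lack a z-score.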 The raw values are shown without normalisation. Entries without a mark were called inactive.

gene | p65 translocation robust z-score | nuclear/cytoplasmic p65 ratio, rep 1 | nuclear/cytoplasmic p65 ratio, rep 2 | low cell count flag
Rere (arginine glutamic acid dipeptide (RE) repeats) | -0.71 | 1.64 | 1.41 | enough cells to score
Mapk8 (mitogen-activated protein kinase 8) | 0.34 | 1.94 | 1.42 | enough cells to score
Sema6a | 0.03 | 1.43 | 1.26 | enough cells to score
Or2a25 (olfactory receptor family 2 subfamily A member 25) | -0.42 | 1.34 | 1.26 | enough cells to score
Ctbp2 (C-terminal binding protein 2) | -0.5 | 1.46 | 1.27 | enough cells to score
Pkd1l2 (polycystic kidney disease 1 like 2) | 0.42 | 1.49 | 1.22 | enough cells to score
Col4a6 (collagen, type IV, alpha 6) | -0.89 | 1.35 | 1.26 | enough cells to score
Trim44 (tripartite motif-containing 44) | 1.29 | 1.6 | 1.34 | enough cells to score
Msx2 (msh homeobox 2) | -0.47 | 1.42 | 1.24 | enough cells to score
Plin2 (perilipin 2) | -0.22 | 1.55 | 1.67 | enough cells to score
Mamdc2 (MAM domain containing 2) | 0.43 | 1.8 | 1.59 | enough cells to score
Ttc1 (tetratricopeptide repeat domain 1) | 0.06 | 1.49 | 1.23 | enough cells to score
Lactb2 (lactamase, beta 2) | 1.42 | 1.72 | 1.65 | enough cells to score
Nup50 (nucleoporin 50) | -1.34 | 1.54 | 1.31 | enough cells to score
Pyurf (Pigy upstream reading frame) | -2.18 (active) | 1.25 | 1.17 | enough cells to score
Cd300e (CD300E molecule) | -0.7 | 1.52 | 1.5 | enough cells to score
Smurf1 (SMAD specific E3 ubiquitin protein ligase 1) | 1.16 | 1.78 | 1.78 | enough cells to score
Rel (Rel proto-oncogene, NFKB subunit) | 0.04 | 1.53 | 1.52 | enough cells to score
Mrpl36 (mitochondrial ribosomal protein L36) | -0.16 | 1.72 | 1.6 | enough cells to score
Cirsr (corepressor of RBPJ and splicing regulator) | 0.09 | 1.39 | 1.43 | enough cells to score
Nmd3 (NMD3 ribosome export adaptor) | -0.9 | 1.4 | 1.63 | enough cells to score
Cipc (CLOCK interacting protein, circadian) | – | 1.27 | 1.22 | fewer than 50 cells per well; well left out of scoring
Trub2 (TruB pseudouridine (psi) synthase family member 2) | 1.5 | 1.83 | 1.65 | enough cells to score
Ptbp1 (polypyrimidine tract binding protein 1) | -0.64 | 1.44 | 1.3 | enough cells to score
Slc38a3 | – | 1.35 | 1.07 | fewer than 50 cells per well; well left out of scoring
Lmbr1l (limb region 1 like) | -0.34 | 1.47 | 1.31 | enough cells to score
Fut2b (fucosyltransferase 2B) | -1.63 (active) | 1.19 | 1.07 | enough cells to score
Cstf3 (cleavage stimulation factor, 3' pre-RNA, subunit 3) | 1.08 | 1.63 | 1.51 | enough cells to score
Preb (prolactin regulatory element binding) | -0.06 | 1.47 | 1.42 | enough cells to score
Cpxm2 (carboxypeptidase X, M14 family member 2) | 0.37 | 1.62 | 1.86 | enough cells to score
Msh4 (mutS homolog 4) | 0.34 | 1.49 | 1.38 | enough cells to score
Spp1 (secreted phosphoprotein 1) | 0.04 | 1.44 | 1.22 | enough cells to score
Gsdma2 (gasdermin A2) | – | 1.1 | 1.38 | fewer than 50 cells per well; well left out of scoring
Pik3ca | -0.7 | 1.57 | 1.3 | enough cells to score
Pcdhga12 (protocadherin gamma subfamily A, 12) | 1.26 | 1.62 | 1.38 | enough cells to score
Hk1 (hexokinase 1) | 0.61 | 1.83 | 1.43 | enough cells to score
Sptssa (serine palmitoyltransferase, small subunit A) | 1.1 | 1.57 | 1.72 | enough cells to score
Get1 (guided entry of tail-anchored proteins factor 1) | -0.24 | 1.51 | 1.22 | enough cells to score
Rabgef1 (RAB guanine nucleotide exchange factor (GEF) 1) | -0.55 | 1.48 | 1.41 | enough cells to score
Crppa (CDP-L-ribitol pyrophosphorylase A) | – | 1.47 | 1.4 | fewer than 50 cells per well; well left out of scoring
Agr3 (anterior gradient 3) | -1.35 | 1.33 | 1.15 | enough cells to score
Dapp1 (dual adaptor for phosphotyrosine and 3-phosphoinositides 1) | -0.61 | 1.53 | 1.41 | enough cells to score
Dctd (dCMP deaminase) | 0.12 | 1.56 | 1.36 | enough cells to score
Atox1 (antioxidant 1 copper chaperone) | – | 0.987 | 1.87 | fewer than 50 cells per well; well left out of scoring
Efl1 (elongation factor like GTPase 1) | 0.31 | 1.44 | 1.46 | enough cells to score
Nudcd1 (NudC domain containing 1) | 1.84 | 1.43 | 1.57 | enough cells to score
Zfp524 (zinc finger protein 524) | – | 1.15 | 1.18 | fewer than 50 cells per well; well left out of scoring
H2-M9 (histocompatibility 2, M region locus 9) | 0.75 | 1.73 | 1.68 | enough cells to score
Optn (optineurin) | 4.16 (active) | 1.96 | 2 | enough cells to score
Lhx8 (LIM homeobox protein 8) | 0.74 | 1.85 | 1.45 | enough cells to score
Bcl2a1d (B cell leukemia/lymphoma 2 related protein A1d) | -0.08 | 1.51 | 1.69 | enough cells to score
Mttp (microsomal triglyceride transfer protein) | -0.85 | 1.3 | 1.26 | enough cells to score
Sergef (secretion regulating guanine nucleotide exchange factor) | 0.42 | 1.37 | 1.55 | enough cells to score
Nudcd2 (NudC domain containing 2) | -0.8 | 1.47 | 1.64 | enough cells to score
Or4e1 (olfactory receptor family 4 subfamily E member 1) | -0.71 | 1.5 | 1.38 | enough cells to score
Ctu1 (cytosolic thiouridylase subunit 1) | -1.1 | 1.41 | 1.41 | enough cells to score
Hsd17b11 (hydroxysteroid (17-beta) dehydrogenase 11) | -0.13 | 1.47 | 1.35 | enough cells to score
Atp2a1 (ATPase, Ca++ transporting, cardiac muscle, fast twitch 1) | 0.27 | 1.65 | 1.66 | enough cells to score
Ring1 (ring finger protein 1) | 0.89 | 1.69 | 1.6 | enough cells to score
